Some of the results follow.
How the values were obtained:
Assay in all cases: glycan array binding signal (z-score within array); higher = stronger binding
Details in all cases: glycan notation: IUPAC condensed, linker removed
[1] = target: Gal(b1-3)[Fuc(a1-4)]GlcNAc(b1-3)Gal(b1-4)[Fuc(a1-3)]GlcNAc
Outline: (§1)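 Glycan array data came from 3228 arrays in the Consortium for Functional Glycomics database, and only arrays with an available protein sequence were kept. Glycan names were put into IUPAC-condensed notation, and columns mapping to the same glycan were averaged. The binding signal is a within-array Z-score, averaged across arrays of one protein sequence run at different concentrations or buffers and across linkers. A negative Z-score can be read as non-binding.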

[2] = target: Gal(b1-3)[Fuc(a1-4)]GlcNAc(b1-6)GalNAc
Outline: as §1

[3] = target: Gal(b1-3)[GlcNAc(b1-6)]GalNAc
Outline: as §1

[4] = target: Gal(b1-3)[Neu5Ac(a2-6)]GalNAc
Outline: as §1

[5] = target: Gal(b1-3)[Neu5Ac(a2-6)]GlcNAc(b1-4)Gal(b1-4)Glc
Outline: as §1

[6] = target: Gal(b1-3)[Neu5Ac(b2-6)]GalNAc
Outline: as §1

[7] = target: Gal(b1-4)Gal
Outline: as §1

[8] = target: Gal(b1-4)GalNAc(a1-3)[Fuc(a1-2)]Gal(b1-4)GlcNAc
Outline: as §1

[9] = target: Gal(b1-4)GalNAc(b1-3)[Fuc(a1-2)]Gal(b1-4)GlcNAc
Outline: as §1

[10] = target: Gal(b1-4)Glc
Outline: as §1

[11] = target: Gal(b1-4)Glc6S
Outline: as §1

[12] = target: Gal(b1-4)GlcNAc
Outline: as §1

[13] = target: Gal(b1-4)GlcNAc(a1-6)Gal(b1-4)GlcNAc
Outline: as §1

[14] = target: Gal(b1-4)GlcNAc(b1-2)Man
Outline: as §1

[15] = target: Gal(b1-4)GlcNAc(b1-2)Man(a1-3)Man(b1-4)GlcNAc(b1-4)GlcNAc
Outline: as §1

[16] = target: Gal(b1-4)GlcNAc(b1-2)Man(a1-3)[Gal(b1-4)GlcNAc(b1-2)Man(a1-6)]Man(b1-4)GlcNAc(b1-4)GlcNAc
Outline: as §1

[17] = target: Gal(b1-4)GlcNAc(b1-2)Man(a1-3)[Gal(b1-4)GlcNAc(b1-2)Man(a1-6)]Man(b1-4)GlcNAc(b1-4)[Fuc(a1-6)]GlcNAc
Outline: as §1

[18] = target: Gal(b1-4)GlcNAc(b1-2)Man(a1-3)[Gal(b1-4)GlcNAc(b1-2)Man(a1-6)][Gal(b1-4)GlcNAc(b1-4)]Man(b1-4)GlcNAc(b1-4)[Fuc(a1-6)]GlcNAc
Outline: as §1

[19] = target: Gal(b1-4)GlcNAc(b1-2)Man(a1-3)[Gal(b1-4)GlcNAc(b1-2)Man(a1-6)][GlcNAc(b1-4)]Man(b1-4)GlcNAc(b1-4)[Fuc(a1-6)]GlcNAc
Outline: as §1

[20] = target: Gal(b1-4)GlcNAc(b1-2)Man(a1-3)[GlcNAc(b1-2)Man(a1-6)]Man(b1-4)GlcNAc(b1-4)GlcNAc
Outline: as §1

[21] = target: Gal(b1-4)GlcNAc(b1-2)Man(a1-3)[GlcNAc(b1-4)][Gal(b1-4)GlcNAc(b1-2)Man(a1-6)]Man(b1-4)GlcNAc(b1-4)GlcNAc
Outline: as §1

[22] = target: Gal(b1-4)GlcNAc(b1-2)Man(a1-3)[Man(a1-6)]Man(b1-4)GlcNAc(b1-4)GlcNAc
Outline: as §1

[23] = target: Gal(b1-4)GlcNAc(b1-2)Man(a1-6)Man(b1-4)GlcNAc(b1-4)GlcNAc
Outline: as §1

B1: FGF1 (Homo sapiens), P05230 (protein)
chain: MAEGEITTFTALTEKFNLPPGNYKKPKLLYSNGGHFLRILPDGTVDGTRDRSDQHIQLQLSAESVGEVYIKSTETGQYLAMTDGLLYGSQTPNEECLFLERLEENHYNTYISKHAEKNWFVGLKKNGSCKRGPRTHYGQAILFLPLPASSED
[1]
  glycan array binding signal (z-score): -0.833
[2]
  glycan array binding signal (z-score): 1.26
[3]
  glycan array binding signal (z-score): -0.688
[4]
  glycan array binding signal (z-score): -0.697
[5]
  glycan array binding signal (z-score): -0.545
[6]
  glycan array binding signal (z-score): -0.615
[7]
  glycan array binding signal (z-score): -0.605
[8]
  glycan array binding signal (z-score): -0.949
[9]
  glycan array binding signal (z-score): -1.12
[10]
  glycan array binding signal (z-score): 1.07
[11]
  glycan array binding signal (z-score): 0.316
[12]
  glycan array binding signal (z-score): -0.031
[13]
  glycan array binding signal (z-score): -0.827
[14]
  glycan array binding signal (z-score): 1.88
[15]
  glycan array binding signal (z-score): -0.453
[16]
  glycan array binding signal (z-score): -0.495
[17]
  glycan array binding signal (z-score): -0.384
[18]
  glycan array binding signal (z-score): -0.861
[19]
  glycan array binding signal (z-score): -0.77
[20]
  glycan array binding signal (z-score): -0.795
[21]
  glycan array binding signal (z-score): -0.739
[22]
  glycan array binding signal (z-score): 0.476
[23]
  glycan array binding signal (z-score): -0.615
